Measured values reported in publication PMC7190567.
Results are given in words; binding and its absence hold for the method and conditions named. In cells and extracts the contact can be indirect. These calls come from enrichment with a bait or labelling near it, and not all partners need be listed.

Protein sequences, listed by entry. Tags and fused reporters are not part of them.
UniProt Q8JZV9: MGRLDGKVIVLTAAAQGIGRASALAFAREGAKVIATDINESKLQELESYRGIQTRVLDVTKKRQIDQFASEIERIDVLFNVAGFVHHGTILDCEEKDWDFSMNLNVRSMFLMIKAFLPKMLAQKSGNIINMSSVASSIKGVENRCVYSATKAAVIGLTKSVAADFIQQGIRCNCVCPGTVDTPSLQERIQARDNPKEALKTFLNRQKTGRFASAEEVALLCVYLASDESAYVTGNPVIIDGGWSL
UniProt Q80W93: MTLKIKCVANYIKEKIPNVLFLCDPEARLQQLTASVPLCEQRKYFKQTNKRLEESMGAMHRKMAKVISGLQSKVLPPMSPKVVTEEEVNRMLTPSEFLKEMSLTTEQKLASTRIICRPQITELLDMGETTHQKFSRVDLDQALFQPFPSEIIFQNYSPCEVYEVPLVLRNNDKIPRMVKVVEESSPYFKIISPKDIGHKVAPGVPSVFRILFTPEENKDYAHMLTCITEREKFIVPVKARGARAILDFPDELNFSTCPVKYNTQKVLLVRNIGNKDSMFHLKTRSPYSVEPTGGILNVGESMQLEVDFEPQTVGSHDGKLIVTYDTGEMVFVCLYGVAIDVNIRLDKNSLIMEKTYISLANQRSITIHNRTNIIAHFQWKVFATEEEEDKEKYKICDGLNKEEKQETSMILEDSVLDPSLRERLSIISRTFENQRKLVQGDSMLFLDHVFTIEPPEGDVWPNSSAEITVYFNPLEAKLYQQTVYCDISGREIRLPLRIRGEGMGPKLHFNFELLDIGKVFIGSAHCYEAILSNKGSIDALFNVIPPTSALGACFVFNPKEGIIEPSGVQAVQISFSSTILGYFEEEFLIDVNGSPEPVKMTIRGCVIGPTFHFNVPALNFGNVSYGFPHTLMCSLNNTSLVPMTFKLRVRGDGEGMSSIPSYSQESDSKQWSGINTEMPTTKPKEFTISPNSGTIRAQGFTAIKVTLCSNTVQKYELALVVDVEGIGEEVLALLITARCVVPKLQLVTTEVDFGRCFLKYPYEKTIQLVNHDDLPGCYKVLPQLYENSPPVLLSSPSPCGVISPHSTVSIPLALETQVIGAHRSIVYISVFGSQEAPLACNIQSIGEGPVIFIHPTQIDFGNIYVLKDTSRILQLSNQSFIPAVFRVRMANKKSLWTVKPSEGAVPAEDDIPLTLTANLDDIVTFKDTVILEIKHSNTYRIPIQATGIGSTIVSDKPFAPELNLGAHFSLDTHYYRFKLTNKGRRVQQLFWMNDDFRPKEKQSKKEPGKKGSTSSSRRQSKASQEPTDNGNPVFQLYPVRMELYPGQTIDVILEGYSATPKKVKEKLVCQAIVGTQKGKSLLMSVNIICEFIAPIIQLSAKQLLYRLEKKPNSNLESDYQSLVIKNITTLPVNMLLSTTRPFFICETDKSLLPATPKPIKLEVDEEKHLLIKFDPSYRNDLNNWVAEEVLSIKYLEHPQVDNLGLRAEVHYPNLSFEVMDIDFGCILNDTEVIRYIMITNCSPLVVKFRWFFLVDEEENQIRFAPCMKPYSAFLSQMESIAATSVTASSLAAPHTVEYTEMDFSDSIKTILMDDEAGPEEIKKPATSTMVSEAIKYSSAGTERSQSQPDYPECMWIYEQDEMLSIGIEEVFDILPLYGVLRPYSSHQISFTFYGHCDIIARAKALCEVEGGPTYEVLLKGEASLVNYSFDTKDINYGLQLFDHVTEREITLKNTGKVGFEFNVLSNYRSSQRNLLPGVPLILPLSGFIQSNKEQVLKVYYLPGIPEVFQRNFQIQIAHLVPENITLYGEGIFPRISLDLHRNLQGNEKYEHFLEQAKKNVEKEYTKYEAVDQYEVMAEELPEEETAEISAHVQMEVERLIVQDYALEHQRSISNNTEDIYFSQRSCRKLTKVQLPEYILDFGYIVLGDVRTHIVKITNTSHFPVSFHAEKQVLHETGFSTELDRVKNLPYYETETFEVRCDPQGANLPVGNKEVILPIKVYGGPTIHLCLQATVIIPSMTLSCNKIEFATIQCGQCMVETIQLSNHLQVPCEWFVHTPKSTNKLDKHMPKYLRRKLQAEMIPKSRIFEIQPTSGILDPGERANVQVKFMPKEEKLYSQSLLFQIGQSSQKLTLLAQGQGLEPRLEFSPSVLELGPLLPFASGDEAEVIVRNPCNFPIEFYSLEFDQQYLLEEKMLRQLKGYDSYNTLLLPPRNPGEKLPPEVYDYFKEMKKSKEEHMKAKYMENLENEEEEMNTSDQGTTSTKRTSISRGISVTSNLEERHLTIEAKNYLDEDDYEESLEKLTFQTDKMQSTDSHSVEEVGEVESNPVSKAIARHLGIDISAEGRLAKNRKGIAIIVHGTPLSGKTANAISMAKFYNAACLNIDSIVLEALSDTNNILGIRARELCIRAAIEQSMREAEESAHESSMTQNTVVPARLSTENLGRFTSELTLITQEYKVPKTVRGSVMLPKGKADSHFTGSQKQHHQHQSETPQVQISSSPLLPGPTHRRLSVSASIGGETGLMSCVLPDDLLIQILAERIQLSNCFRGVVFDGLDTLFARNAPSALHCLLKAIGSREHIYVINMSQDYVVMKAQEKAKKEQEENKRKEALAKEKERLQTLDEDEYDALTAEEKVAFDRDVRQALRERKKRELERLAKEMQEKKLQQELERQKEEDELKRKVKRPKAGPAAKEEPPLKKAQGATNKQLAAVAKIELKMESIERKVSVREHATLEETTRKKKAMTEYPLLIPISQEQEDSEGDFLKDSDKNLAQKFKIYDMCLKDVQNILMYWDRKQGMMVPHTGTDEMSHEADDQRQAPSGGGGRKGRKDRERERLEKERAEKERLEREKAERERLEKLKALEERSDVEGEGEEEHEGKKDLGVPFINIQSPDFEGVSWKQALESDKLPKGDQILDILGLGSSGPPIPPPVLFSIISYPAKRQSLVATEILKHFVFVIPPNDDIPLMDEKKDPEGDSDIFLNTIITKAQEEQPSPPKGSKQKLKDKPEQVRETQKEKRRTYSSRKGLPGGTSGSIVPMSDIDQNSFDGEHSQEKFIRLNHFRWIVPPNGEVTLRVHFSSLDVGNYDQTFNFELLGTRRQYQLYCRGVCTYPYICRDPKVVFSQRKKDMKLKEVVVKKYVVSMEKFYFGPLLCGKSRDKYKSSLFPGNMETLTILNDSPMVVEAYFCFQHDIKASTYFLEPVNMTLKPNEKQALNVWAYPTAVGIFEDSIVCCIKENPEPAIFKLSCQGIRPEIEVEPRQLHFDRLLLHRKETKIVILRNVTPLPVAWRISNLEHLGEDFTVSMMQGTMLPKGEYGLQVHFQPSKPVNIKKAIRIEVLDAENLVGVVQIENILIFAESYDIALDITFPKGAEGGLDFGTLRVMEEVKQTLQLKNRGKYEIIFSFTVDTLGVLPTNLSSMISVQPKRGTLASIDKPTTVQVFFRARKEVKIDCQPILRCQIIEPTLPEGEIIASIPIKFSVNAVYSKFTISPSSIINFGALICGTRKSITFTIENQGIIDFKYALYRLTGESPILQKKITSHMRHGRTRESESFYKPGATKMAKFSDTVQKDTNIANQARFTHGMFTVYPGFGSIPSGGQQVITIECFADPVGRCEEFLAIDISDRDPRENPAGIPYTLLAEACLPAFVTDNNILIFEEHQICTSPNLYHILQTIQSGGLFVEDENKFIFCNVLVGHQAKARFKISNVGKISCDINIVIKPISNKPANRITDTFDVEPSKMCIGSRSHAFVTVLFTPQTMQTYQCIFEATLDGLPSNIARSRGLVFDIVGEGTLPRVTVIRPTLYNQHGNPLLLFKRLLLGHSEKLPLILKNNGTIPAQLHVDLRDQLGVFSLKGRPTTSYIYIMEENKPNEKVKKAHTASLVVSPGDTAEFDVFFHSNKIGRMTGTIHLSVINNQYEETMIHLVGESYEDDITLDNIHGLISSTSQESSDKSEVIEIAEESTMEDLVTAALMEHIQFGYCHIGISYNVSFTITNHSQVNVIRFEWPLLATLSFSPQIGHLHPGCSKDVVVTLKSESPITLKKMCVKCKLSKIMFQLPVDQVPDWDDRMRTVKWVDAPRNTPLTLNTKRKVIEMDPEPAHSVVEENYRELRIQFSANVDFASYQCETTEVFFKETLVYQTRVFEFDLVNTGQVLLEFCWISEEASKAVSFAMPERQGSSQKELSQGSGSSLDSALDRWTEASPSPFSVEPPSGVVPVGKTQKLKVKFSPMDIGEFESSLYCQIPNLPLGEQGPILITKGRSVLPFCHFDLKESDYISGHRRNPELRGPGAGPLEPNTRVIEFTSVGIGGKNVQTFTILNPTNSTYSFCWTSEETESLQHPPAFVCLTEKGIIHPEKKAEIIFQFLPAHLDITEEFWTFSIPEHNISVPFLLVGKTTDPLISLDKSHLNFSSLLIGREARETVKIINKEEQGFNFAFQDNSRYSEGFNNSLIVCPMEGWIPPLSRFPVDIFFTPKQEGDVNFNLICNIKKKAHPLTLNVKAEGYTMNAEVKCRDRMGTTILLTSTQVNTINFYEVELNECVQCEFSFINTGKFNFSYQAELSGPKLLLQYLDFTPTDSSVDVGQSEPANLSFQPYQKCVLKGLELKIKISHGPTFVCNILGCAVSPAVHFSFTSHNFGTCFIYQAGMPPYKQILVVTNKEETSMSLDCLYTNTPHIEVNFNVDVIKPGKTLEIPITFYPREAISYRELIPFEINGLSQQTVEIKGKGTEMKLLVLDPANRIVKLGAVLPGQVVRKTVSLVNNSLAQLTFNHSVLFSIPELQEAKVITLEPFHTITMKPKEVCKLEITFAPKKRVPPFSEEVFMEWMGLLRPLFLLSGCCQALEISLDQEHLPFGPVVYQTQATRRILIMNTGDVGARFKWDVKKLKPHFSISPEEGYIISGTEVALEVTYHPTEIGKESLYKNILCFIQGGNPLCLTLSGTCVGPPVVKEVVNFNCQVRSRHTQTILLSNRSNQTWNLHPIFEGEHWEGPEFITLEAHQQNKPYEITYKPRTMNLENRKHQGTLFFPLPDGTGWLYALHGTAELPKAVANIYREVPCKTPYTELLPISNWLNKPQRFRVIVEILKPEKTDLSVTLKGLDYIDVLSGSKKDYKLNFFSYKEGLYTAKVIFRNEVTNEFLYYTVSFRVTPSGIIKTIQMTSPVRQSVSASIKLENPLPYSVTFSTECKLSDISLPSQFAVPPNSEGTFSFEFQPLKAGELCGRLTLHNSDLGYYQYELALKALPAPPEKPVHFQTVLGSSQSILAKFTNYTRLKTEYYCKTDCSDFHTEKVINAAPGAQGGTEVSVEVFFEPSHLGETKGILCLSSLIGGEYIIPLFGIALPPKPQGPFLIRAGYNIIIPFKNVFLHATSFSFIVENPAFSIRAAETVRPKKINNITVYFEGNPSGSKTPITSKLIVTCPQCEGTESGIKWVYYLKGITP
UniProt Q9Z207: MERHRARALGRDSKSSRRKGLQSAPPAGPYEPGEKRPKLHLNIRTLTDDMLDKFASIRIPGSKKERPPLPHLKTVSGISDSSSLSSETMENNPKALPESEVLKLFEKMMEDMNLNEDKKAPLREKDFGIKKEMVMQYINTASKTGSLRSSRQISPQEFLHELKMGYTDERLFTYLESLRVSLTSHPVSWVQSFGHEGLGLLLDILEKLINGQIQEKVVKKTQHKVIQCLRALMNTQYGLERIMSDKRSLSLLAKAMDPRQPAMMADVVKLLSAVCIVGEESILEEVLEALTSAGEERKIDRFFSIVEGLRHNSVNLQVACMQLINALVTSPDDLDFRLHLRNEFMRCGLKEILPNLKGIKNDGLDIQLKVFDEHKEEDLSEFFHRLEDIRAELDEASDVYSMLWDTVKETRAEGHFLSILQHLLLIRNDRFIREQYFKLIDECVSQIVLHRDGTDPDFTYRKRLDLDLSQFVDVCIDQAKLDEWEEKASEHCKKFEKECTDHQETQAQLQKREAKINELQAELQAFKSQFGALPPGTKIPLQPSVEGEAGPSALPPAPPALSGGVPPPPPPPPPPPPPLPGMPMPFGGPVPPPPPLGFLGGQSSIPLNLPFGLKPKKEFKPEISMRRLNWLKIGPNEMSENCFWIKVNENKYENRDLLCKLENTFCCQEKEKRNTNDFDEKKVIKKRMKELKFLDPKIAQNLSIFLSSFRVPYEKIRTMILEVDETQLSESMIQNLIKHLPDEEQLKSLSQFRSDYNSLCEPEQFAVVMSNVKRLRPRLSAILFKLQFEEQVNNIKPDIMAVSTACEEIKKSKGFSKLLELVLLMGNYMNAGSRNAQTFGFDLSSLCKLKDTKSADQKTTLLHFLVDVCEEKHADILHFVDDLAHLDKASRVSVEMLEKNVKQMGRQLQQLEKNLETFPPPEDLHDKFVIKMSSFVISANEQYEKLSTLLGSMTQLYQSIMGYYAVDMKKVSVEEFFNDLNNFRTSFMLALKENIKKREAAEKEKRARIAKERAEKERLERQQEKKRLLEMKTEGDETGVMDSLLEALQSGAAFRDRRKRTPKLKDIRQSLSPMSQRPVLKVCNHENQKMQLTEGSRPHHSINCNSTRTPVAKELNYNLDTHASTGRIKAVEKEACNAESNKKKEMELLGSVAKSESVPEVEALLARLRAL

Biological target: T1, Caveolin-1 (wild type) (dog) (UniProt P33724)
T1 sequence: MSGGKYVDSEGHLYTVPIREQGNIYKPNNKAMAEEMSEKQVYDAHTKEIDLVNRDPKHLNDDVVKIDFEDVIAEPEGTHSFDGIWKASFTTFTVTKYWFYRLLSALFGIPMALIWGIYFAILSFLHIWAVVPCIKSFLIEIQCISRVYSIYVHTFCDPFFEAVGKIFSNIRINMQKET
Test: affinity purification with mass spectrometry; CAV1 immunoprecipitated with polyclonal anti-CAV1 on Dynabeads from B16F10(CAV1-E-cadherin) cells; trypsin digest, nano-ESI-MS/MS on an LTQ ion trap, Mascot; only proteins unique to this sample listed

Smad1 (from UniProt P70340 1-465)
binding: binds

FAM129C, Phospholipid binding (mouse (endogenous in B16F10))
binding: binds

Multiple PDZ domain protein (from UniProt Q8VBX6 1-2055)
binding: binds

DIP2 disco-interacting protein 2 homolog C (mouse (endogenous in B16F10))
binding: binds

Microtubule-actin cross-linking factor 1 (from UniProt Q9QXZ0 1-7354)
binding: binds

Protocaherin-17 (mouse (endogenous in B16F10))
binding: binds

BOD1L (from UniProt E9Q6J5 1-3032)
binding: binds

PH-interacting protein (from UniProt Q8VDD9 1-1821)
binding: binds

Afadin (from UniProt Q9QZQ1 1-1820)
binding: binds

E3 Ubiquitin-protein ligase RNF213 (from UniProt E9Q555 1-5148)
binding: binds

Bdh2, 3-hydroxbutyrate dehydrogenase type 2 (from UniProt Q8JZV9 1-245)
binding: binds

Serine/arginine repetitive matrix protein 2 (from UniProt Q8BTI8 1-2703)
binding: binds

Metabotropic glutamate receptor 1 (from UniProt P97772 21-1199)
binding: binds

Hydrocephalus-inducing protein (from UniProt Q80W93 1-5154)
binding: binds

Diaphanous homolog 3 (from UniProt Q9Z207 1-1171)
binding: binds

Centriolin (from UniProt A2AL36 1-2334)
binding: binds

TopBP1-interacting checkpoint and replication regulator (from UniProt Q8BQ33 1-1889)
binding: binds

Dennd4a, C-myc promoter-binding protein (mouse (endogenous in B16F10))
binding: binds

Citron Rho-interacting kinase (from UniProt P49025)
binding: binds

Serine/threonine-protein phosphatase 4 regulatory subunit 3B (from UniProt Q922R5 1-820)
binding: binds

Disheveled-associated activator of morphogenesis 2 (from UniProt Q80U19 1-1115)
binding: binds

Multidomain presynaptic cytomatrix protein (from UniProt Q9QYX7 1-5068)
binding: binds

Chromodomain-helicase-DNA-binding protein 2 (from UniProt E9PZM4 1-1827)
binding: binds

Adenomatosis polyposis coli (from UniProt Q61315 1-2845)
binding: binds

Protein Cyp2j 12 (mouse (endogenous in B16F10))
binding: binds

Serine/threonine-protein kinase WNK2 (from UniProt Q3UH66 1-2149)
binding: binds

Fatty acid synthase (from UniProt P19096 1-2504)
binding: binds

B1: S1 RNA-binding domain-containing protein 1 (protein, UniProt Q497V5 1-982)
chain: MPSLRKRVKIQAENAEPKDECSFFSELSSGSEEDNKEDSIWEPQKKVPRNRRQPASKGSKRKQGPRAKKSSQQVDDESKDVAVKEELNSPVAIVDADLEEKSHKLQTTKTLKTAAKKQKKPVPRAKKRLKVDEETSQASPLEGGGSNVETPSTSACGNVCKKEESEDSFTFGQSPVKRIRTESCPQGRPARVPDGVSDIKEEVEMNWDVVQVLSERTNIEPWVCANIIRLFNDDNTIPFIVRYRKELINNLDADFLREVRQTLDELRDVAKKVHSRIQKIKKEGKMSECLLQALLNCKTFEELEHVSAPYKMGSKGTKAQRAKQLGLEGAAWTLLENPGQLNLLSYIKPDVKGLSELNDIETGVQHILADMIAKDKDTLDFIRGLCKHRYICIQSSLAKVSSKKVNEKEVDKFQLYQNFSCNIRTIHHHQILAINRGENLKILTVKVNISDGVKNEFCRWCIQNRWRPRGFARPELMKILHNSLDDSFKRLIVPLLCREFRAKLTSDAEKQSVMMFGQNLRQLLLTSPVPGRTLMGVDPGYKHGCKLAIISPTSQILHTDVVYLHCGQGFREAEKIKRLLLHFNCRTVVIGNGTACRETEAYFADLIMKNYFAPLDVVYCIVSEAGASIYSVSPEANKEMPGLDPNLRSAVSIARRVQDPLAELVKFDPKHIGVGMYQHDVSQTLLKATLDSVVEECVSFVGVDINICSEVLLRHIAGLNANRAKNIIEWREKNGPFINREQLKKVKGLGPKSFQQCAGFVRINQDYIRTFCSSQHTDSSGQSQETAMVTNEKLGKKKNKADATLIPNPLDQTCIHPESYDIAVRFLSFIGGTMCEIGKPEMQQKINVSLGKEGIEETAERLQTTVHTLQVIIDGLSQPKTFDIRTDFDKPDFKRSIVCLEDLQVGTVLTGKVENATLFGVFVDIGVGKAGLIPIRFITEAKLSKTKRRRSLGLGPGEKVEVKVLNVDIPRSRISLDLLRVL
binding: binds

B2: NAD(P) transhydrogenase, mitochondrial (protein, UniProt Q61941 44-1086)
chain: CKSPVKPGIPYKQLTVGVPKEIFQNEKRVALSPAGVQALVKQGFNVVVESGAGEASKFPDDLYRAAGAQIQGMKEVLASDLVVKVRAPMVNPTLGAHEADFLKPSGTLISFIYPAQNPDLLNKLSERKTTVLAMDQVPRVTIAQGYDALSSMANISGYKAVVLAANHFGRFFTGQITAAGKVPPAKILIVGGGVAGLASAGAAKSMGAVVRGFDTRAAALEQFKSLGAEPLEVDLKESGEGQGGYAKEMSKEFIEAEMKLFAQQCKEVDILISTALIPGKKAPVLFSKEMIESMKEGSVVVDLAAEAGGNFETTKPGELYVHKGITHIGYTDLPSRMATQASTLYSNNITKLLKAISPDKDNFHFEVKDDFDFGTMSHVIRGTVVMKDGKVIFPAPTPKNIPEEAPVKPKTVAELEAEKAGTVSMYTKTLTTASVYSAGLTGMLGLGIVAPNVAFSQMVTTFGLAGIIGYHTVWGVTPALHSPLMSVTNAISGLTAVGGLALMGGHFYPSTTSQSLAALATFISSVNIAGGFLVTQRMLDMFKRPTDPPEYNYLYLLPGGTFVGGYLAALYGGYNIEEIMYLGSGLCCVGALGGLSTQGTARLGNALGMIGVAGGLAATLGGLKPDPQLLAQMSGAMAMGGTIGLTIAKRIQISDLPQLVAAFHSLVGLAAVLTCMAEYIVEYPHFAMDATSNFTKIVAYLGTYIGGVTFSGSLVAYGKLQGILKSAPLLLPGRHALNAGLLAASVGGIIPFMADPSFTTGITCLGSVSGLSTLMGVTLTAAIGGADMPVVITVLNSYSGWALCAEGFLLNNNLLTIVGALIGSSGAILSYIMCVAMNRSLANVILGGYGTTSTAGGKPMEISGTHTEINLDNAVEMIREANSIVITPGYGLCAAKAQYPIADLVKMLTEQGKKVRFGIHPVAGRMPGQLNVLLAEAGVPYDIVLEMDEINSDFPDTDLVLVIGANDTVNSAAQEDPNSIIAGMPVLEVWKSKQVIVMKRSLGVGYAAVDNPIFYKPNTAMLLGDAKKTCDALQAKVRESYQK
binding: binds

B3: RNA-binding protein 48 (protein, UniProt Q8K2X2 1-371)
chain: MASSDGKPGGVFDHHVQTAVCDSRAKYREGRRPRAVKVYTINLESQYLLIQGVPAVGAMKELVERFALYGAIEQYNALDEYPAEDFTEVYLIKFVKLQSARVAKKKMDEQSFFGGLLHVCYAPEFETVEETRKKLQERKAYITRVTKNQDCYMAKKKPVPEQKGTKDSRQGFHPPMPGFGTAALNTSPESPPENSSSCLPYSCEFPLSCFASKSTCSRGEHVDRVSDSCNSARNHGELSRHRDHSAFSPKLQMNTYKNSVPCSSVQEAIATSQAVGRFMPRTTQLQERKRRRDCDRELGTLLETHTSSNEVLIGPKLPGIPTVDLQDDSLNTTATLIRRKLKEVISSVPKPPEDNIKDVCTSHPGKQRRRI
binding: binds

B4: Matrilin-3 (protein, UniProt O35701 28-481)
chain: APGRLARASVRRLGTRVPGGSPGHLSALATSTRAPYSGGRGAGVCKSRPLDLVFIIDSSRSVRPLEFTKVKTFVSRIIDTLDIGATDTRVAVVNYASTVKIEFQLNTYSDKQALKQAVARITPLSTGTMSGLAIQTAMEEAFTVEAGARGPMSNIPKVAIIVTDGRPQDQVNEVAARARASGIELYAVGVDRADMESLKMMASKPLEEHVFYVETYGVIEKLSARFQETFCALDQCMLGTHQCQHVCVSDGDGKHHCECSQGYTLNADGKTCSAIDKCALSTHGCEQICVNDRNGSYHCECYGGYALNADRRTCAALDKCASGTHGCQHICVNDGAGSHHCECFEGYTLNADKKTCSVRNKCALGTHGCQHICVSDGAVAYHCDCFPGYTLNDDKKTCSDIEEARSLISIEDACGCGATLAFQEKVSSHLQKLNTKLDNILKKLKVTEYGQVHR
binding: binds

B5: Protein spindly (protein, UniProt Q923A2 1-608)
chain: MEADITNLRNKLKECEDERLKAAHYGLQLLERQTELQSQLDKCHEEMMITAEKYNQEKHALQREVELKSRMLDSLSCECEALKQQQKAQLEQLEVQLHRSHRQEVSDLKNKLENLKVELDEARLGEKQLKQKLDLQGELLAHKSEELRLLSEQRVLSSMSSELLALETELTAAEGVKNALKEEVNELQYKQEQLECLNTSLLHQVDRLKEEKEEREREAVSYYNALEKARVENQDLQVQLGHALQQAADPNSKGNSLFAEVEDRRVAMERQLNLMKDKYQSLKKQNAFTRDQMNKMKLQISTLLRMRGSQTEFEQQERLFAMIEQKNGEIKHLLGEINKLEKFKNLYESMESRPSTSDTACVLEDSTYYSDLLQLKLDKLNKENESTKDELSIQRMKALFESQRALDIERKLFTNERHLQLSESENMKLRAKLDELKLKYEPEERIEVPVLKRRREVLPLNITTPEETEETAAASATEDGVSRLPPHREEESCLNSLKDNTVQWKQPASSCVQPASLSPHKNLHLDTQPKKEKKCVKLVDSPANIEVLHEQSGNTPNSPRLTAESKLPTEVKERIETTSKLGKGACKKSHNIIYVSSKSAPETQCSQQ
binding: binds
